Laboratory results from the supplement of paper PMC10849652.
Some of the results follow.

Chains of the proteins cited; added tags and fusions are not shown. Lines headed by an entry give the natural chain unless they say otherwise; changes in a name come on top.
UniProt Q9NUU7: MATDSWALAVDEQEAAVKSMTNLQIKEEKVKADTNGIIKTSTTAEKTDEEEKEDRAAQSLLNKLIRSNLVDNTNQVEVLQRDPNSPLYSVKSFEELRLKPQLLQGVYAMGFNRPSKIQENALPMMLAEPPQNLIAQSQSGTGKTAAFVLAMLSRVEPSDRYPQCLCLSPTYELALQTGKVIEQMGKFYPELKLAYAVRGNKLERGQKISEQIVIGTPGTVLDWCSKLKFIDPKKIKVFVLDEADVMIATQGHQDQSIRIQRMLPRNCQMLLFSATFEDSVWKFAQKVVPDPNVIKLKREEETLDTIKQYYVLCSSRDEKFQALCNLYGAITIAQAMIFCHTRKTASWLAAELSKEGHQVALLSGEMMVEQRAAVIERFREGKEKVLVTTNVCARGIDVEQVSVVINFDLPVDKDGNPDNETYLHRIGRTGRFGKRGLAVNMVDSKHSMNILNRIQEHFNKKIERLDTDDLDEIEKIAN
UniProt Q6UX07: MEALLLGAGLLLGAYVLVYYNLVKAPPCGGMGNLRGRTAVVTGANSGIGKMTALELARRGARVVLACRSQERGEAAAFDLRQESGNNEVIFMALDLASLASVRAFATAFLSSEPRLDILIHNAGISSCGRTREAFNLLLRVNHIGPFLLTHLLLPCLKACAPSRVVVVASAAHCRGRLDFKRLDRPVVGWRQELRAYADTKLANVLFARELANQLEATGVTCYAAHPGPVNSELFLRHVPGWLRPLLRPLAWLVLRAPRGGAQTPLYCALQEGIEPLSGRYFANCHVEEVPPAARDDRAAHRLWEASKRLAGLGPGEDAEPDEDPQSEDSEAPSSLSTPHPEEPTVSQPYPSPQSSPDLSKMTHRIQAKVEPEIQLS
UniProt Q9BUN8: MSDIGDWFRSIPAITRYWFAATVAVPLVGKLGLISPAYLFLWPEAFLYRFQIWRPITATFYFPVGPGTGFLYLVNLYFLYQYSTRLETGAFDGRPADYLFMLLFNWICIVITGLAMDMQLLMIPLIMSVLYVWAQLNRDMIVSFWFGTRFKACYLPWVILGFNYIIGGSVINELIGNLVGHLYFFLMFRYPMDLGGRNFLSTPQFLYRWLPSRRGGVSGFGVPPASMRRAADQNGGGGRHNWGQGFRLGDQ
UniProt Q8TCE6, whole entry, looked up: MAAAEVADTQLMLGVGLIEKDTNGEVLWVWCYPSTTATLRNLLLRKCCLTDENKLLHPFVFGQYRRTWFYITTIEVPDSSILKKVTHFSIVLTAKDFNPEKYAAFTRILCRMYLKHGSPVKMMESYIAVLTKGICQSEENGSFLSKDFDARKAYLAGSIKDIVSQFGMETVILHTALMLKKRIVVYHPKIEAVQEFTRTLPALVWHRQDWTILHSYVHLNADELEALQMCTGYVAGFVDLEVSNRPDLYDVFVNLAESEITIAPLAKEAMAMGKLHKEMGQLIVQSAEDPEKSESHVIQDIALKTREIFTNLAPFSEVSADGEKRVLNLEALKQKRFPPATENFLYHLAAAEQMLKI
UniProt Q9H0S4: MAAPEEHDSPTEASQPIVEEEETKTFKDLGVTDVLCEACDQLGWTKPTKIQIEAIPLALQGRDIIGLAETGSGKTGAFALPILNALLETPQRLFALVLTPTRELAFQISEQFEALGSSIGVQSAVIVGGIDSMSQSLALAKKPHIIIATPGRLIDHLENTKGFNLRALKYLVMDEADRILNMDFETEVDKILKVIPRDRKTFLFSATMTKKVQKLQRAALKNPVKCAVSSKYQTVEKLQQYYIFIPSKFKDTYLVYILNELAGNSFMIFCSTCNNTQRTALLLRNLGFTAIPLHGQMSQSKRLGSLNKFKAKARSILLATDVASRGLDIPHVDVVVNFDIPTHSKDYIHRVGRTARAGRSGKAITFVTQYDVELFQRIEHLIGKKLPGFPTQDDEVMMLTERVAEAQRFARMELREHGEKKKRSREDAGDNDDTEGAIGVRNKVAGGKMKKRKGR
UniProt Q12959, whole entry, looked up: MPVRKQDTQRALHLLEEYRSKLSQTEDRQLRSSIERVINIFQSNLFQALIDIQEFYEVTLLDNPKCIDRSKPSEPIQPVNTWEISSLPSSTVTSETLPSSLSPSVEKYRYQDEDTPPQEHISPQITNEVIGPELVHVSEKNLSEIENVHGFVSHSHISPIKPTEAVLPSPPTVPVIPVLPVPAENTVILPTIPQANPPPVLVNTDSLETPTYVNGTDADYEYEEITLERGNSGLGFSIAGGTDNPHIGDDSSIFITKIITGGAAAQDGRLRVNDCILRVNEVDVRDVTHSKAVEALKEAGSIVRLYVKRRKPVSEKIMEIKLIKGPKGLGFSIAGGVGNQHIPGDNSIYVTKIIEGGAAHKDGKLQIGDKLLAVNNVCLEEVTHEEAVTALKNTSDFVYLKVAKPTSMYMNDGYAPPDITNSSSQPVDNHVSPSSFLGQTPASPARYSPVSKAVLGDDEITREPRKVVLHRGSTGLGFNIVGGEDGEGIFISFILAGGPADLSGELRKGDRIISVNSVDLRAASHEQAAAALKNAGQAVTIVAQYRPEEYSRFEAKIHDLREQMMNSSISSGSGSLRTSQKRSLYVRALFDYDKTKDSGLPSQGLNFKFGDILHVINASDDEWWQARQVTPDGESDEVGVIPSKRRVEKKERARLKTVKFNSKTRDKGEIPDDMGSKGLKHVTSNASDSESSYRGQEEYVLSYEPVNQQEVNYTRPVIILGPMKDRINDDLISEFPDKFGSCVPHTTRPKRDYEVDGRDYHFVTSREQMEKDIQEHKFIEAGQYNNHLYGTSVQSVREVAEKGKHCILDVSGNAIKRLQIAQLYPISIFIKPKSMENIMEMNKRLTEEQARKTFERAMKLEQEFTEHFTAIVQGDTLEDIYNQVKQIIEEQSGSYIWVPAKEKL
UniProt Q92796: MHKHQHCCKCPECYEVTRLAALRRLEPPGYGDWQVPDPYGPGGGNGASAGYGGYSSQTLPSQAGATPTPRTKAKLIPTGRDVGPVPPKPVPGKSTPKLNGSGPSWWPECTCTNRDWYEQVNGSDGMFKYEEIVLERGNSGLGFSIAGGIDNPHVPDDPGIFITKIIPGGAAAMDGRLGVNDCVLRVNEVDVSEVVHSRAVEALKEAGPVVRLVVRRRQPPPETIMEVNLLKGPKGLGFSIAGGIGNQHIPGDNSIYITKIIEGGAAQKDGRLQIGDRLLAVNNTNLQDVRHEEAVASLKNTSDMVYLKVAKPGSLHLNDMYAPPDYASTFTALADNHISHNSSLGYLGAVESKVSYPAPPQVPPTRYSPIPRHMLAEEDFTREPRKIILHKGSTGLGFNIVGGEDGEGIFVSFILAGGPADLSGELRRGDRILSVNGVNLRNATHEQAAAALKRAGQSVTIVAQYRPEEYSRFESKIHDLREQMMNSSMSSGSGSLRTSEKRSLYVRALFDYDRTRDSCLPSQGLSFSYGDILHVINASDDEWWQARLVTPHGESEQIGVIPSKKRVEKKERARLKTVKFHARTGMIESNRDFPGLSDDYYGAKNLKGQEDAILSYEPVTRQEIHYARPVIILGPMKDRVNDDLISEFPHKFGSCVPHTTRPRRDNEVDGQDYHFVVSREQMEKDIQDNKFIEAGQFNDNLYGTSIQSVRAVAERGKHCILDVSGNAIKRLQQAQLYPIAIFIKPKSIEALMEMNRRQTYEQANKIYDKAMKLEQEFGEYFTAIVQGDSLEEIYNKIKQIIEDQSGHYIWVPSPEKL
UniProt O75064: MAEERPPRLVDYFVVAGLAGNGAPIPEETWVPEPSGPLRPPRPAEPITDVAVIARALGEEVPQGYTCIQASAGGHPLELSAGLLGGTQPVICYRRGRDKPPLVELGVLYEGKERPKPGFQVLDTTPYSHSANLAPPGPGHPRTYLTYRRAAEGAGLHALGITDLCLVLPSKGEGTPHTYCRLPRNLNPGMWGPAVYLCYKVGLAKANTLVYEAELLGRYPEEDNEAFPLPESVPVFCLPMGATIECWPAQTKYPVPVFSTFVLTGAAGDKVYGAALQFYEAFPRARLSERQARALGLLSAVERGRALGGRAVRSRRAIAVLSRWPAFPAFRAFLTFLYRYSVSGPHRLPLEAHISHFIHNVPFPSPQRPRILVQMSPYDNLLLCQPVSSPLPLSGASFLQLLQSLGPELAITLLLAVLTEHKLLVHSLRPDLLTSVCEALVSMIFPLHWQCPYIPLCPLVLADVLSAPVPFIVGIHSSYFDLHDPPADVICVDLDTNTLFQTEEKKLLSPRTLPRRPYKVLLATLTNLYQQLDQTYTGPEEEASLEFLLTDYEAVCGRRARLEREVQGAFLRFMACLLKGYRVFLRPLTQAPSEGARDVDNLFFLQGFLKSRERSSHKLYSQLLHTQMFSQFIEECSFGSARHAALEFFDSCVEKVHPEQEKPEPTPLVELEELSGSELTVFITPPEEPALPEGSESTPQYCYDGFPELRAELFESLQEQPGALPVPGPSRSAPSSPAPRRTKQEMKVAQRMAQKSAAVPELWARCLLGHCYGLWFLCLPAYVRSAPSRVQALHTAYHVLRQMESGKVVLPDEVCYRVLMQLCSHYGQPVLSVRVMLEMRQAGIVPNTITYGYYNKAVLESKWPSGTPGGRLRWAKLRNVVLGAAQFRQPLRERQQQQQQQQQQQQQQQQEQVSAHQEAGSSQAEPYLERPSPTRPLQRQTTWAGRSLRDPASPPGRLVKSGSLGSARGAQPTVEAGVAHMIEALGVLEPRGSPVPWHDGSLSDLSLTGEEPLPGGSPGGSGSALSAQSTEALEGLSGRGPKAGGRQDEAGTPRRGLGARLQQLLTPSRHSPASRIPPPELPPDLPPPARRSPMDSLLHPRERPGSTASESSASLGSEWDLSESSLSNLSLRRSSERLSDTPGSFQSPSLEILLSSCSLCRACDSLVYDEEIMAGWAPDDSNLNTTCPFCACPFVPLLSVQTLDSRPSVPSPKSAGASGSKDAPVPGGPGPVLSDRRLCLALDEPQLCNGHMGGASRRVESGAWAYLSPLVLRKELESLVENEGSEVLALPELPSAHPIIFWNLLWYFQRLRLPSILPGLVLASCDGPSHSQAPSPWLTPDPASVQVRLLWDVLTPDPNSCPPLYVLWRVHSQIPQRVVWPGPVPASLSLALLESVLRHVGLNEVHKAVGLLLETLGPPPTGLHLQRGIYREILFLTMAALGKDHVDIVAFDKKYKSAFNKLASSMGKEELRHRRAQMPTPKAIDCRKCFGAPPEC
UniProt P39656: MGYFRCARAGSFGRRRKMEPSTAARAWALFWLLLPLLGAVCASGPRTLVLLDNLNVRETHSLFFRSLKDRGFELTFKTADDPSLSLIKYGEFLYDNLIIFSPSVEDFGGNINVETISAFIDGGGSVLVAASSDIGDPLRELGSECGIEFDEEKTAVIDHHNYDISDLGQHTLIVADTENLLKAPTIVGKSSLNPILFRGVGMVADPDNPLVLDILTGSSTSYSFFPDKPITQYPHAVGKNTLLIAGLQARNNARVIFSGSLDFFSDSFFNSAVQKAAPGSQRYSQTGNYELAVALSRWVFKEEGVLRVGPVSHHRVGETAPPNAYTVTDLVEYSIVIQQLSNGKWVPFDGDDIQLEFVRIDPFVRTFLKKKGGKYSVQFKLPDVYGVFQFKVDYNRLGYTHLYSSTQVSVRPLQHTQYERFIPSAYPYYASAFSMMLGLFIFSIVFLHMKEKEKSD
UniProt Q8TEH3: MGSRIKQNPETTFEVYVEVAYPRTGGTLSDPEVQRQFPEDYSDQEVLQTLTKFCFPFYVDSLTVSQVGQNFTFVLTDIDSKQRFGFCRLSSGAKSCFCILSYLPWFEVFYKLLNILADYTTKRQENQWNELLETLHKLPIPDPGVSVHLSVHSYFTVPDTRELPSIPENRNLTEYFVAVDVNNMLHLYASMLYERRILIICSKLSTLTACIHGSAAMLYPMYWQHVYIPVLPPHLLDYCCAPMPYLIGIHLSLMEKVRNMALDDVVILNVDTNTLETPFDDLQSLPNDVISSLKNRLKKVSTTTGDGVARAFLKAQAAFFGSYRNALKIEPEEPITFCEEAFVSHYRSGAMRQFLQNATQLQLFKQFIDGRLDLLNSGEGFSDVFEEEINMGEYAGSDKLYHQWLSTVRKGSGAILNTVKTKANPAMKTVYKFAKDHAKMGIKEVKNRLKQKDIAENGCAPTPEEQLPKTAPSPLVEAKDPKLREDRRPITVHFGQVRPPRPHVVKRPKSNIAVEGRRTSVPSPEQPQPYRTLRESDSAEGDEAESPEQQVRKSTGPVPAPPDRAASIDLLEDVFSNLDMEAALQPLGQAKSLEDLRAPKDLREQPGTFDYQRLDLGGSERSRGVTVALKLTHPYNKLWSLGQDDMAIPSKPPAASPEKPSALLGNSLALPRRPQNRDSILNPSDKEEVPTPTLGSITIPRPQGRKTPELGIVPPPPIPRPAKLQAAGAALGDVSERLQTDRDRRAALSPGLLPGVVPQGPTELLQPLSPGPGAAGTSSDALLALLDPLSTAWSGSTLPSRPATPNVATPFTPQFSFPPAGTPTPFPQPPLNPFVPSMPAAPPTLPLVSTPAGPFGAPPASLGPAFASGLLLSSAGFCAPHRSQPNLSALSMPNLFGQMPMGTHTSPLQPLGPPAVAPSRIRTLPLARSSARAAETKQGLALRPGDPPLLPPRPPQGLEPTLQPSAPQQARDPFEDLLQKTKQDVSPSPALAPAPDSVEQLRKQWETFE

Assays:
Experiment in all cases: log2 fold change, soluble protein after heating vs DMSO (PISA); higher = thermal stabilisation; K562 cells, 10 uM, 30 min; active = over 0.2 and 3.5 SD of the protein, either way, in both replicates (recomputed)
[1] = compound: NC(=O)Nc1cc(-c2cccc(F)c2)sc1C(=O)N[C@H]1CCCNC1
Outline: (§1)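 Values are thermal stability changes relative to control samples and are taken from duplicates. They are stated as log2 fold changes. Before quantification by TMTpro 16plex LC-MS/MS with equalised channel sums, K562 cells at 2×10^6 cells/mL were treated with 10 μM compound for 30 min, heated in aliquots for 3 min across 48°C-58°C, pooled, extracted in PBS with 0.5% NP-40 at 4°C, and centrifuged at 21,000xg for 90 min to give the soluble supernatant.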

[2] = compound: NC(=O)c1cnc(N[C@@H]2CCCC[C@@H]2N)nc1Nc1cccc(-n2nccn2)c1
Outline: as §1

[3] = compound: NC1(c2ccc(-c3nc4ccn5c(=O)[nH]nc5c4cc3-c3ccccc3)cc2)CCC1
Outline: as §1

[4] = compound: NCC(=O)Nc1ccc(-n2nc(C(F)(F)F)cc2-c2ccc3c(ccc4ccccc43)c2)cc1
Outline: as §1

entinostat = compound: Nc1ccccc1NC(=O)c1ccc(CNC(=O)OCc2cccnc2)cc1 [entinostat]
Outline: as §1

silmitasertib = compound: O=C(O)c1ccc2c(c1)nc(Nc1cccc(Cl)c1)c1ccncc12 [silmitasertib]
Outline: as §1

[5] = compound: O=C1NC(=O)C(c2cnc3ccccn23)=C1c1cn2c3c(cc(F)cc13)CN(C(=O)N1CCCCC1)CC2
Outline: as §1

vorinostat = compound: O=C(CCCCCCC(=O)Nc1ccccc1)NO [vorinostat]
Outline: as §1

citarinostat = compound: O=C(CCCCCCNC(=O)c1cnc(N(c2ccccc2)c2ccccc2Cl)nc1)NO [citarinostat]
Outline: as §1

[6] = compound: c1cc(OCCN2CCCCC2)cc(-c2n[nH]c3ccc(-c4nnc[nH]4)cc23)c1
Outline: as §1

Measured: log2 fold change

DDX11 (UniProt Q96FC9)
inactive: [1] -0.1 | [2] -0.099 | [3] -0.061 | [4] 0.032 | entinostat -0.009 | silmitasertib 0.191 | [5] -0.007

DDX19A (UniProt Q9NUU7)
inactive: [1] 0.044 | [2] 0.005 | [3] -0.06 | [4] 0.009 | entinostat 0.038 | vorinostat 0.027 | citarinostat 0.027 | silmitasertib -0.017 | [5] -0.07 | [6] -0.068

DHRS2 (UniProt Q13268)
inactive: [1] -0.027 | [2] 0.026 | [3] -0.014 | [4] 0.091 | entinostat 0.022 | vorinostat 0.003 | citarinostat 0.045 | silmitasertib 0.019 | [5] 0.045 | [6] -0.018

DHRS13 (UniProt Q6UX07)
inactive: [1] 0.182 | [2] -0.012 | [3] 0.102 | [4] 0.156 | entinostat 0.043 | vorinostat -0.013 | citarinostat 0.1 | silmitasertib 0.087 | [6] -0.06

DDB2 (UniProt Q92466)
inactive: [1] 0.164 | [2] 0.071 | [3] 0.056 | [4] -0.092 | entinostat -0.098 | vorinostat 0.147 | silmitasertib -0.08 | [5] -0.036

DERL1 (UniProt Q9BUN8)
inactive: [1] 0.057 | [2] 0.025 | [3] -0.082 | [4] 0.036 | entinostat -0.049 | vorinostat -0.124 | citarinostat 0.001 | silmitasertib 0.013 | [5] -0.007 | [6] -0.008

Looked up one by one from the entries so far (2):
DDX19A (UniProt Q9NUU7)
inactive: [1] 0.044 | [2] 0.005 | [3] -0.06 | [4] 0.009 | entinostat 0.038 | vorinostat 0.027 | citarinostat 0.027 | silmitasertib -0.017 | [5] -0.07 | [6] -0.068

DHRS13 (UniProt Q6UX07)
inactive: [1] 0.182 | [2] -0.012 | [3] 0.102 | [4] 0.156 | entinostat 0.043 | vorinostat -0.013 | citarinostat 0.1 | silmitasertib 0.087 | [6] -0.06

The results go on.

DENND1B (UniProt Q6P3S1)
inactive: [1] -0.152 | [2] -0.05 | [3] -0.703 | [4] 0.11 | entinostat -0.152 | citarinostat -0.125 | silmitasertib 0.467 | [5] -0.17 | [6] 0.013

DDB1 (UniProt Q16531)
inactive: [1] 0.027 | [2] -0.025 | [3] -0.024 | [4] -0.004 | entinostat -0.022 | vorinostat -0.021 | citarinostat 0.02 | silmitasertib -0.002 | [5] -0.018 | [6] -0.03

DENND10 (UniProt Q8TCE6)
inactive: [1] 0.018 | [2] 0 | [3] -0.089 | [4] -0.069 | entinostat -0.076 | citarinostat 0.07 | silmitasertib 0.037 | [5] 0.073 | [6] 0.054

DDX47 (UniProt Q9H0S4)
inactive: [1] 0.087 | [2] 0.298 | [3] 0.173 | [4] -0.156 | entinostat -0.021 | silmitasertib 0.061 | [5] 0.134

DENND6A (UniProt Q8IWF6)
inactive: [1] -0.055 | [2] -0.165 | [3] -0.05 | [4] -0.031 | entinostat 0.037 | vorinostat 0 | citarinostat -0.077 | silmitasertib 0.1 | [5] -0.028 | [6] -0.11

DENND4A isoform 2 (UniProt Q7Z401)
inactive: [1] -0.038 | [2] -0.144 | [3] 0.089 | [4] -0.084 | entinostat 0.113 | vorinostat 0.195 | citarinostat 0.281 | silmitasertib 0.101 | [5] -0.038 | [6] -0.21

DIAPH1 (UniProt O60610)
inactive: [1] -0.156 | [2] -0.085 | [3] -0.067 | [4] -0.064 | entinostat 0.024 | vorinostat 0.066 | citarinostat 0.056 | silmitasertib 0.115 | [5] 0.178 | [6] -0.046

DDX18 (UniProt Q9NVP1)
inactive: [1] -0.037 | [2] -0.03 | [3] 0.255 | entinostat 0.029 | vorinostat 0.09 | citarinostat -0.072 | silmitasertib 0.155 | [6] -0.4

DERL2 (UniProt Q9GZP9)
inactive: [1] -0.058 | [2] 0.049 | [3] 0.064 | [4] -0.071 | entinostat 0.045 | vorinostat -0.077 | silmitasertib 0.027 | [5] 0.238

DIDO1 (UniProt Q9BTC0)
inactive: [1] -0.016 | [2] -0.02 | [3] 0.032 | entinostat 0.037 | vorinostat 0.031 | citarinostat -0.075 | silmitasertib -0.036 | [5] -0.02 | [6] -0.221

DLG1 isoform 2 (UniProt Q12959)
inactive: [1] -0.163 | [2] -0.001 | [3] -0.16 | [4] -0.017 | entinostat -0.037 | vorinostat -0.004 | citarinostat 0.122 | silmitasertib 0.029 | [5] -0.023 | [6] -0.127

DEK (UniProt P35659)
inactive: [1] -0.028 | [2] -0.028 | [3] -0.066 | [4] -0.053 | entinostat 0.111 | vorinostat 0.081 | citarinostat 0.127 | silmitasertib 0.006 | [5] -0.06 | [6] 0.019

DIS3L (UniProt Q8TF46)
inactive: [1] 0.043 | [2] -0.137 | [3] 0.091 | [4] 0.104 | entinostat -0.05 | citarinostat -0.169 | silmitasertib 0.112 | [5] -0.007 | [6] 0.092

DGKE (UniProt P52429)
inactive: [1] 0.117 | [2] -0.032 | [3] -0.308 | entinostat 0.005 | silmitasertib 0.023

DDX20 (UniProt Q9UHI6)
inactive: [1] 0.14 | [2] 0.096 | [3] -0.047 | entinostat 0.039 | vorinostat 0.123 | citarinostat -0.083 | silmitasertib 0.081 | [5] 0.275 | [6] -0.093

DLG3 (UniProt Q92796)
inactive: [1] -0.037 | [2] 0.028 | [3] -0.081 | [4] 0.052 | entinostat -0.009 | vorinostat 0.054 | silmitasertib -0.034 | [5] 0.031

DIPK2A (UniProt Q8NDZ4)
inactive: [1] 0.018 | [2] 0.029 | [4] -0.035 | entinostat -0.126

DENND4B (UniProt O75064)
inactive: [1] 0.009 | [2] 0.06 | [3] 0.002 | [4] -0.021 | entinostat 0.026 | vorinostat 0.044 | silmitasertib 0.029 | [5] -0.043

DDX39B isoform 2 (UniProt Q13838)
inactive: [1] -0.016 | [2] -0.005 | [3] 0.069 | [4] 0.004 | entinostat -0.041 | vorinostat -0.027 | citarinostat -0.015 | silmitasertib 0.001 | [5] 0.048 | [6] -0.073

DDOST (UniProt P39656)
inactive: [1] 0.003 | [2] -0.013 | [3] -0.057 | [4] 0.014 | entinostat 0.007 | vorinostat -0.036 | citarinostat 0.017 | silmitasertib 0.05 | [5] -0.017 | [6] -0.116

DDB1 isoform 2 (UniProt Q16531)
inactive: [1] -0.295 | entinostat -0.237 | vorinostat -0.032 | citarinostat -0.203 | [5] -0.09 | [6] -0.12

DMBT1 isoform 6 (UniProt Q9UGM3)
inactive: [1] 1.04 | [3] 0 | entinostat -0.026 | silmitasertib 0.256 | [5] -0.073

DHRSX (UniProt Q8N5I4)
inactive: [2] 0.017 | [3] -0.115 | [4] -0.088 | vorinostat -0.038 | silmitasertib -0.091

DDX42 (UniProt Q86XP3)
inactive: [1] -0.102 | [2] 0.186 | entinostat -0.047 | vorinostat 0.155 | citarinostat 0.043 | [5] -0.211 | [6] 0.004

DENND1A isoform 6 (UniProt Q8TEH3)
inactive: [4] -0.119

DIEXF (UniProt Q68CQ4)
inactive: [4] -0.111
